Earlier results, collected in PMC3747594 (ACS Chemical Biology, 2013).

System: K2P2.1 (TREK-1)
Details: cited from earlier work

In the case of `CNCCC(Oc1ccc(C(F)(F)F)cc1)c1ccccc1` (stereo not shown) [fluoxetine], the IC50 is listed as about 10 µM.
